Test results published in publication PMC10978938.
Where a chain is given by its changes, count along the chain named. No constants are given. Whether binding was seen depends on the method and setting. For some of these results: Binding seen in cells or lysates may run through a third protein. Some binding calls cover weakened binding; strength is not graded here. For some of these results: Sequences can lack the tags named with a protein.

Protein sequences, listed by entry. Tags and fused reporters are not part of them.
UniProt P47811: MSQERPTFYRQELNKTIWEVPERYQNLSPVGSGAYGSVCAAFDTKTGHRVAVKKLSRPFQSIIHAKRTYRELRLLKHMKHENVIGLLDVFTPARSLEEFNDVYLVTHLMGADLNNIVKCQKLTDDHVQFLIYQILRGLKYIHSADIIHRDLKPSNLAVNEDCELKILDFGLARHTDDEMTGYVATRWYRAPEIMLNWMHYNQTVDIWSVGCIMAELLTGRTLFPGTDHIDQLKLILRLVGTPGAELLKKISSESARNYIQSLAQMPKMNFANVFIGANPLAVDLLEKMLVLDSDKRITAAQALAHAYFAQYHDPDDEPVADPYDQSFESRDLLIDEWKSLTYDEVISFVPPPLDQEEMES
UniProt Q16539: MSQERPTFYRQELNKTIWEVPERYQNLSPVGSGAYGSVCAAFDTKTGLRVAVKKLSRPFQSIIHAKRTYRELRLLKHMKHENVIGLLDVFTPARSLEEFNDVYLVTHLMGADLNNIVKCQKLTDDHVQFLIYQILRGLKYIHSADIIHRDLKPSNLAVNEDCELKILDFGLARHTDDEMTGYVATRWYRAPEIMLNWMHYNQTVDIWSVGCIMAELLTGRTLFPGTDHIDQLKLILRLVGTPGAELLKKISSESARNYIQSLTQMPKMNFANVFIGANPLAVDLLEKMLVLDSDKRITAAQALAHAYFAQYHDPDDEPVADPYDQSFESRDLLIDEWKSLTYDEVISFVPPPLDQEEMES
UniProt Q8C3P7: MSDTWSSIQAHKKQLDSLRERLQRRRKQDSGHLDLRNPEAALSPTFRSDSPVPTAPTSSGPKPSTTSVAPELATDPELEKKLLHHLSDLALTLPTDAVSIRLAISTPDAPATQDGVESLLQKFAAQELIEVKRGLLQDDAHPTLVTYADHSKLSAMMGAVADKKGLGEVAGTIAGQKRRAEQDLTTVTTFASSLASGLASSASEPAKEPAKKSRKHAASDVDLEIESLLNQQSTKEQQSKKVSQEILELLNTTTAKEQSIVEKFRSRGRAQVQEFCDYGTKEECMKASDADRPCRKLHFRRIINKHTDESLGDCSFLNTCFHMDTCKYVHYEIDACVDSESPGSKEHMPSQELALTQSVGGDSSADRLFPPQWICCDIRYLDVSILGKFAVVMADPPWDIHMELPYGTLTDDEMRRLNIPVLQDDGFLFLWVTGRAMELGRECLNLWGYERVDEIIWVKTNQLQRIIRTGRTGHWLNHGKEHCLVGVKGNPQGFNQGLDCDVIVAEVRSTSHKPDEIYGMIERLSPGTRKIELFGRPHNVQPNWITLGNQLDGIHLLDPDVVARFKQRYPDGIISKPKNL

Key:
[1] = molecular target: T1, methyltransferase-like 14 (METTL14), endogenous in mouse peritoneal macrophages (mouse (endogenous in peritoneal macrophages)) (UniProt Q3UIK4); test: co-IP
T1 sequence: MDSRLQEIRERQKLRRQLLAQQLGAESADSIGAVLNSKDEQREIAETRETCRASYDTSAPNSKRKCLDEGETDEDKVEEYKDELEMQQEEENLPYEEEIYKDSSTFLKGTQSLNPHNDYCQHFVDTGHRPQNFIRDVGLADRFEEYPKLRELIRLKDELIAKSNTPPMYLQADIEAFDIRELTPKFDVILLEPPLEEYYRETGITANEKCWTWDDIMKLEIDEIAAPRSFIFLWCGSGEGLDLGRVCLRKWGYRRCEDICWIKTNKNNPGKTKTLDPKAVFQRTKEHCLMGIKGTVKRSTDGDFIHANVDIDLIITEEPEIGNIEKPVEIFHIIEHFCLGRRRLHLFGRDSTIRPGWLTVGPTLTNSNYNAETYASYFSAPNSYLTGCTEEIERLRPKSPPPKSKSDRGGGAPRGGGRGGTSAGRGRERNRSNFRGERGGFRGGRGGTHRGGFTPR

[2] = molecular target: T2, HA-tagged Mettl14, wild type (UniProt Q3UIK4); test: co-IP
T2 sequence: T1 sequence

[3] = molecular target: T3, METTL14 in HEK293T cells (human (endogenous in HEK293T)) (UniProt Q9HCE5); test: co-IP; HEK293T cells transfected with plasmids encoding FLAG-EsxB for 24 h and stimulated with TNF-α for indicated times
T3 sequence: T1 sequence with S62A, C66Y, V77M, E89D, T448A, T454P

[4] = molecular target: p38 MAP kinase (p38α), endogenous in mouse peritoneal macrophages (mouse (endogenous in peritoneal macrophages)) (UniProt P47811); test: co-IP
[5] = molecular target: GST-p38, purified recombinant (human) (UniProt Q16539); test: pull-down; in vitro GST precipitation assay, purified recombinant GST-p38 with GFP-METTL14; both purified

p38 MAP kinase (p38α), endogenous in mouse peritoneal macrophages (from UniProt P47811 1-360) (enzyme)
binding [1]: binds

methyltransferase-like 3 (METTL3), endogenous in mouse macrophages (from UniProt Q8C3P7 1-580) (enzyme)
binding [2]: binds

p38 MAP kinase in HEK293T cells (from UniProt Q16539 1-360) (enzyme)
binding [3]: binds

B1: ATF-2, endogenous in mouse peritoneal macrophages (protein, UniProt P16951 1-487)
chain: MSDDKPFLCTAPGCGQRFTNEDHLAVHKHKHEMTLKFGPARNDSVIVADQTPTPTRFLKNCEEVGLFNELASPFENEFKKASEDDIKKMPLDLSPLATPIIRSKIEEPSVVETTHQDSPLPHPESTTSDEKEVPLAQTAQPTSAIVRPASLQVPNVLLTSSDSSVIIQQAVPSPTSSTVITQAPSSNRPIVPVPGPFPLLLHLPNGQTMPVAIPASITSSNVHVPAAVPLVRPVTMVPSVPGIPGPSSPQPVQSEAKMRLKAALTQQHPPVTNGDTVKGHGSGLVRTQSEESRPQSLQQPATSTTETPASPAHTTPQTQNTSGRRRRAANEDPDEKRRKFLERNRAAASRCRQKRKVWVQSLEKKAEDLSSLNGQLQSEVTLLRNEVAQLKQLLLAHKDCPVTAMQKKSGYHTADKDDSSEDLSVPSSPHTEAIQHSSVSTSNGVSSTSKAEAVATSVLTQMADQSTEPALSQIVMAPPSQAQPSGS
binding [4]: binds

B2: TAB1, endogenous in mouse peritoneal macrophages (protein, UniProt Q8CF89 1-502)
chain: MAAQRRSLLQSEQQPSWTDDLPLCHLSGVGSASNRSYSADGKGTESHPPEDNWLKFRSENNCFLYGVFNGYDGNRVTNFVAQRLSAELLLGQLNTEHTEADVRRVLLQAFDVVERSFLESIDDALAEKASLQSQLPEGVPQHQLPPQYQKILERLKALEREISGGAMAVVAVLLNSKLYVANVGTNRALLCKSTVDGLQVTQLNMDHTTENEDELFRLSQLGLDAGKIKQMGVICGQESTRRIGDYKVKYGYTDIDLLSAAKSKPIIAEPEIHGAQPLDGVTGFLVLMSEGLYKALEAAHGPGQANQEIAAMIDTEFAKQTSLDAVAQAVVDRVKRIHSDTFASGGERAKFCPRHEDMTLLVRNFGYPLGEMSQPTPTPAPGGRVYPVSVPYSSAQSTSKTSVTLSLVMPSQGQMVNGSHSASTLDEATPTLTNQSPTLTLQSTNTHTQSSSSSSDGGLFRSRPAHSLPPGEDGRVEPYVDFAEFYRLWSVDHGEQSVMTAP
binding [4]: binds

B3: TCF (ELK4), endogenous in mouse peritoneal macrophages (protein, UniProt P41158 1-430)
chain: MDSAITLWQFLLQLLQEPQNEHMICWTSNNGEFKLLQAEEVARLWGIRKNKPNMNYDKLSRALRYYYVKNIIKKVNGQKFVYKFVSYPEILKMDPLTVGRIEGDCEALNSIETSSSKDVEYGGKERPPQPGAKTSSRNDYIHSGLYSSFTLNSLNTSNKKLFKSIKIENPAEKLAEKKAQEPTPSVIKFVTTPAKKPPIEPVAAAFATSPSLSPSSEETIQALETLVSPTLPSLETPASISILATTFNPTPPVPSTPLPLKEPPRTPSPPLSSNPDIDTDIESVASQPMELPENLSLEPKNEDSALPEKDKTNNSSRSKKPKGLELTPALVVTGSDPSPLGILSPSLPTASLTPALFSQTPILLTPSPLLSSIHFWSTLSPFAPLSPARLQGANTLFQFPSVLNSHGPFTLSGLDGPSTPGPFSPDLQKT
binding [4]: binds

B4: GFP-METTL14, recombinant (protein, UniProt Q3UIK4 1-456)
chain: T1 sequence
binding [5]: binds
